# Laboratory results from article PMC9424285.
# How the values were obtained:
# [1] = target: T1, C-C motif chemokine receptor 4 (CCR4) (human (endogenous in KYSE410 and KYSE510)) (UniProt P51679); assay: co-IP; immunoprecipitation-immunoblotting of KYSE410 and KYSE510 cells treated with CM from pol-TAMs, CM from pri-TAMs or CCL22 (50 ng/ml)
# T1 sequence: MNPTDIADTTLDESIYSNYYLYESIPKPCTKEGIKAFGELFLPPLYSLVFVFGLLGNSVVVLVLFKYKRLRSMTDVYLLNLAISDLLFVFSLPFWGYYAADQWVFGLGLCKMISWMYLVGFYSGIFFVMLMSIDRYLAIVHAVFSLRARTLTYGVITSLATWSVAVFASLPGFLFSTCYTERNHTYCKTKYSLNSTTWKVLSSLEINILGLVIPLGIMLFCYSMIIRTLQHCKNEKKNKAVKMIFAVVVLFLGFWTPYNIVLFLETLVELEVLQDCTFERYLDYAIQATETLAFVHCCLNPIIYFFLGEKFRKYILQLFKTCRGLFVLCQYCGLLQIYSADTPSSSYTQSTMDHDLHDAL
# [2] = target: T1, C-C motif chemokine receptor 4 (CCR4) (human (endogenous in KYSE410 and KYSE510)); assay: condition: only with the anti-CCL22 Ab (50 μg/ml) added to the pol-TAM or pri-TAM CM; co-IP; immunoprecipitation-immunoblotting of KYSE410 and KYSE510 cells treated with CM from pol-TAMs or pri-TAMs together with the anti-CCL22 antibody (50 μg/ml)
# [3] = target: T2, phospholipase C-γ1 (PLC-γ1) (human (endogenous in KYSE410 and KYSE510)) (UniProt P19174); assay: co-IP; immunoprecipitation-immunoblotting of KYSE410 or KYSE510 cells treated with CCL22 (50 ng/ml); PLC-γ1 against its partners
# T2 sequence: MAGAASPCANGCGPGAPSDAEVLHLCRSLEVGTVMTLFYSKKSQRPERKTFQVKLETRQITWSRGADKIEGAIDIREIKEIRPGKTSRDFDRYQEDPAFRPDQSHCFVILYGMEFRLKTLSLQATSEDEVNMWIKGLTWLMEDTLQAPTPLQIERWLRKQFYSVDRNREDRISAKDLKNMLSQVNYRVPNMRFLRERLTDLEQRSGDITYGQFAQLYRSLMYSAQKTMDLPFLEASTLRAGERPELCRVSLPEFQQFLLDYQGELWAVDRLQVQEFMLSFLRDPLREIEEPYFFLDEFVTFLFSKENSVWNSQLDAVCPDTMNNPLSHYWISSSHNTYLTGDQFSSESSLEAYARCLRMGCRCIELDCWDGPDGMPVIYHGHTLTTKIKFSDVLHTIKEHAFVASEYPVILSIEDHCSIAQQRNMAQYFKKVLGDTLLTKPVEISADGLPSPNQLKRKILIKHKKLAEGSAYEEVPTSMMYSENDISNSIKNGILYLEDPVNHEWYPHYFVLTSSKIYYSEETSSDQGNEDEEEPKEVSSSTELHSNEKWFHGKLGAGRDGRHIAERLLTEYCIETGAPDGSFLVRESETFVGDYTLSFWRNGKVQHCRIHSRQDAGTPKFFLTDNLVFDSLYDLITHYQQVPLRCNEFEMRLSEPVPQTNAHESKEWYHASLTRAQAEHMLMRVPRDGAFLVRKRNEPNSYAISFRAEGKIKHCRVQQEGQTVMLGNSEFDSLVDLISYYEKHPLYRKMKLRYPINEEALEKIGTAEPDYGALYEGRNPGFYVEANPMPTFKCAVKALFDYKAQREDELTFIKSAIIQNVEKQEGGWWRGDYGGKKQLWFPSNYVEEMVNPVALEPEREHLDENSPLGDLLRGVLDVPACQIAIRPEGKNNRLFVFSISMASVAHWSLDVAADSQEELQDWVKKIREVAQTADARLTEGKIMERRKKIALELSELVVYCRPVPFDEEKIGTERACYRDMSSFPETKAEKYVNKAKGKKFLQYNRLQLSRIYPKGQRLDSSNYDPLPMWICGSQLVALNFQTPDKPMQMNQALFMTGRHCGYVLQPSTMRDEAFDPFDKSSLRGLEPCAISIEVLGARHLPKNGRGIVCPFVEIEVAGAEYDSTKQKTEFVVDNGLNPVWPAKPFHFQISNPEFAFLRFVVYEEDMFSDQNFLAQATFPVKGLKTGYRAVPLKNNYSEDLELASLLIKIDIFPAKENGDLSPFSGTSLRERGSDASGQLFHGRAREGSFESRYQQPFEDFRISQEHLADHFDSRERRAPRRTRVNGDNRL
substance,measurement,setting,value
FAK C-terminus (domain or fragment),binding,[1],binds
same,binding,[2],no binding
AKT (enzyme),binding,[3],no binding
same,binding,[1],no binding
FAK N-terminus (domain or fragment),binding,[1],no binding

# These are yes or no findings as the source states them, for the method shown. Binding seen in cells or lysates may run through a third protein. For some assays here: A result given as binding can be weak or reduced; the word gives no strength.
